Measurements reported in PubChem BioAssay AID1159584 (Peter MacCallum Cancer Centre, 2016).

Test: 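Genes that CDH1-null MCF10A cells selectively depend on to survive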 (primary screen)
Cells: human MCF10A breast epithelial cells, parental and CDH1-null
Reagent: siRNA against human genes
Measurement: 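Cell viability by CellTiter-Glo ATP luminescence, each line scaled to the mean of mock wells across plates, then CDH1-null over parental ratio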
Direction: CDH1-null / parental viability ratio: higher = CDH1-null cells survive relatively better than parental; CDH1-null viability vs mock: higher = more viable CDH1-null cells; parental viability vs mock: higher = more viable parental cells
In all, the deposit lists about 18,000 reagents; below is a part drawn at random. Not given: the amount of reagent, the time to read-out.

no.	target gene	CDH1-null / parental viability ratio	CDH1-null viability vs mock (fraction of mock)	parental viability vs mock (fraction of mock)
1	AOC3	0.9	0.77	0.86
2	CACNA1E	1.27	1.04	0.82
3	IQGAP1	1.08	0.64	0.59
4	SPTLC3	1.03	0.93	0.9
5	PPIF	1.27	0.79	0.62
6	CD300LD-AS1	0.97	0.84	0.87
7	RIPK1	1	0.74	0.74
8	EIF2S2	1.15	0.46	0.4
9	LYRM1	1.09	0.84	0.77
10	RASAL1	1.1	0.92	0.84
11	CMTM6	0.87	0.75	0.86
12	ERCC2	1	0.96	0.96
13	POLR3B	0.89	0.75	0.84
14	S100A13	0.86	0.6	0.7
15	THRAP3	1.05	1	0.95
16	UROS	0.82	0.75	0.92
17	RIPK3	1.02	0.98	0.96
18	ARNT	1.12	1.01	0.9
19	SNAPC4	1.12	0.74	0.66
20	SDR39U1	1.06	0.73	0.69
21	TTLL8	1.6	0.48	0.3
22	NR4A1	0.79	0.74	0.94
23	BAGE3	0.68	0.32	0.47
24	IL10	1.02	0.82	0.8
25	ECHDC2	0.8	0.56	0.7
26	GFUS	0.83	0.45	0.54
27	THTPA	1.29	0.9	0.7
28	ADRB3	1.37	0.82	0.6

2 entries from above in another layout.
SPTLC3
- CDH1-null / parental viability ratio: 1.03
- CDH1-null viability vs mock (fraction of mock): 0.93
- parental viability vs mock (fraction of mock): 0.9

PPIF
- CDH1-null / parental viability ratio: 1.27
- CDH1-null viability vs mock (fraction of mock): 0.79
- parental viability vs mock (fraction of mock): 0.62
